Experimental data reported in paper PMC8595612, “Hydrogen peroxide signaling via its transformation to a stereospecific alkyl hydroperoxide that escapes reductive inactivation” (Nature Communications, 2021).
These are yes or no findings as the source states them, for the method shown. Some results given as binding are weak or reduced against the parent protein; the word gives no strength. For some of these results: Tags and fused reporters may be left off the sequences shown. Blank lines part the entries; values can stand above or below the binder they belong to.

Columns and labels:
[1] = target: mouse PKG1α, endogenous in mesenteric arteries (mouse (endogenous in mesenteric arteries)) (UniProt P0C605); assay: non-reducing SDS-PAGE and immunoblot (disulfide-linked dimer); aorta and mesenteric arteries of naive or LPS-treated mice (with or without L-Trp infusion), perfused with 100 mM NEM, homogenised in Laemmli buffer; non-reducing electrophoresis, immunoblot for PKG1α, Prx2, Prx4; dimer band to total
[2] = target: T1, mouse Prx2, endogenous in arteries (mouse (endogenous in aorta and mesenteric arteries)), Q61171; assay: as above; details: remark: other sources report otherwise
T1 chain: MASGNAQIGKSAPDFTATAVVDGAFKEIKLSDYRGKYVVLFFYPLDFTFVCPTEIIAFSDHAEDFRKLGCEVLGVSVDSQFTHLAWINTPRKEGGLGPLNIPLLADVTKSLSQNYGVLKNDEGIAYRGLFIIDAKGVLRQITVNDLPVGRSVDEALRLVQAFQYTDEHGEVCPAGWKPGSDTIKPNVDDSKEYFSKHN

[3] = target: His-tagged wild type human Prx4 (peroxiredoxin 4) (human) (UniProt Q13162); assay: non-reducing SDS-PAGE (disulfide-linked dimer, redox blotting); purified pre-reduced Prx (20 uM) incubated with cis-WOOH, trans-WOOH (1-20 uM) or H2O2 (2.5-20 uM) for 10 s at 5 °C in 50 mM sodium phosphate pH 7.4 with 100 uM DTPA; NEM 50 mM; non-reducing 4-12% SDS-PAGE, silver stain; monomer and dimer bands; both purified
[4] = target: mouse Prx4, endogenous in arteries (mouse (endogenous in aorta and mesenteric arteries)) (UniProt O08807); assay: non-reducing SDS-PAGE and immunoblot (disulfide-linked dimer); aorta and mesenteric arteries of naive or LPS-treated mice (with or without L-Trp infusion), perfused with 100 mM NEM, homogenised in Laemmli buffer; non-reducing electrophoresis, immunoblot for PKG1α, Prx2, Prx4; dimer band to total

binding [1]: binds
B1: mouse PKG1α, endogenous in mesenteric arteries (enzyme, UniProt P0C605 1-671)
chain: MSELEEDFAKILMLKEERIKELEKRLSEKEEEIQELKRKLHKCQSVLPVPSTHIGPRTTRAQGISAEPQTYRSFHDLRQAFRKFTKSERSKDLIKEAILDNDFMKNLELSQIQEIVDCMYPVEYGKDSCIIKEGDVGSLVYVMEDGKVEVTKEGVKLCTMGPGKVFGELAILYNCTRTATVKTLVNVKLWAIDRQCFQTIMMRTGLIKHTEYMEFLKSVPTFQSLPDEILSKLADVLEETHYENGEYIIRQGARGDTFFIISKGQVNVTREDSPSEDPVFLRTLGKGDWFGEKALQGEDVRTANVIAAEAVTCLVIDRDSFKHLIGGLDDVSNKAYEDAEAKAKYEAEAAFFANLKLSDFNIIDTLGVGGFGRVELVQLKSEESKTFAMKILKKRHIVDTRQQEHIRSEKQIMQGAHSDFIVRLYRTFKDSKYLYMLMEACLGGELWTILRDRGSFEDSTTRFYTACVVEAFAYLHSKGIIYRDLKPENLILDHRGYAKLVDFGFAKKIGFGKKTWTFCGTPEYVAPEIILNKGHDISADYWSLGILMYELLTGSPPFSGPDPMKTYNIILRGIDMIEFPKKIAKNAANLIKKLCRDNPSERLGNLKNGVKDIQKHKWFEGFNWEGLRKGTLTPPIIPSVASPTDTSNFDSFPEDSDEPPPDDNSGWDIDF

binding [2]: binds
B2: mouse Prx2, endogenous in arteries, Q61171 1-198 (enzyme)
chain: MASGNAQIGKSAPDFTATAVVDGAFKEIKLSDYRGKYVVLFFYPLDFTFVCPTEIIAFSDHAEDFRKLGCEVLGVSVDSQFTHLAWINTPRKEGGLGPLNIPLLADVTKSLSQNYGVLKNDEGIAYRGLFIIDAKGVLRQITVNDLPVGRSVDEALRLVQAFQYTDEHGEVCPAGWKPGSDTIKPNVDDSKEYFSKHN

binding [3]: binds
B3: His-tagged wild type human Prx4 (peroxiredoxin 4) (enzyme, UniProt Q13162 38-271)
chain: WETEERPRTREEECHFYAGGQVYPGEASRVSVADHSLHLSKAKISKPAPYWEGTAVIDGEFKELKLTDYRGKYLVFFFYPLDFTFVCPTEIIAFGDRLEEFRSINTEVVACSVDSQFTHLAWINTPRRQGGLGPIRIPLLSDLTHQISKDYGVYLEDSGHTLRGLFIIDDKGILRQITLNDLPVGRSVDETLRLVQAFQYTDKHGEVCPAGWKPGSETIIPDPAGKLKYFDKLN

binding [4]: binds
B4: mouse Prx4, endogenous in arteries (enzyme, UniProt O08807 41-274)
chain: LESDERFRTRENECHFYAGGQVYPGEASRVSVADHSLHLSKAKISKPAPYWEGTAVINGEFKELKLTDYRGKYLVFFFYPLDFTFVCPTEIIAFGDRIEEFKSINTEVVACSVDSQFTHLAWINTPRRQGGLGPIRIPLLSDLNHQISKDYGVYLEDSGHTLRGLFIIDDKGVLRQITLNDLPVGRSVDETLRLVQAFQYTDKHGEVCPAGWKPGSETIIPDPAGKLKYFDKLN
